Measurements as given in US20110046101A1, “BATE-LACTAMASE INHIBITORS” (priority 2008, published 2011).
Some results were stated once for a whole list of compounds, not compound by compound.

By UniProt entry, the sequences of proteins in these tests, tags left out. Residues count along the entry.
UniProt Q7WZC7, entry or part of it: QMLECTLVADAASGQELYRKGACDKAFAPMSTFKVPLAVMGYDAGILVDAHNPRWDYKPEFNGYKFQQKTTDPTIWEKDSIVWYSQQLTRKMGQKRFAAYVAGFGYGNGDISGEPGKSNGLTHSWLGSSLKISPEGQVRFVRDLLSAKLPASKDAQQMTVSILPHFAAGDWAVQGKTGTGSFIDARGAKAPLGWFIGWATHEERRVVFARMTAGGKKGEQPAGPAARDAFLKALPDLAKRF
UniProt P14489, 20-266: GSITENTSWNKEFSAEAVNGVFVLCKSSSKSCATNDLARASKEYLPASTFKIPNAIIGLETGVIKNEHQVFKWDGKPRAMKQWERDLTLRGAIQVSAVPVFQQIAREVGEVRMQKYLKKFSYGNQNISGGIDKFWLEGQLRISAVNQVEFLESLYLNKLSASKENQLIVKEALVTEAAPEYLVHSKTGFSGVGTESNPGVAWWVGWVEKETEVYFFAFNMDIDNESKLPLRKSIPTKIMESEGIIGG

Assays:
OXA-45 = OXA-45 (Pseudomonas aeruginosa, UniProt Q7WZC7); test: β-lactamase inhibition assay with nitrocefin substrate, OXA-45; assay type: biochemical
Protocol: (§1) Compounds of the present application were evaluated as inhibitors of two Class B β-lactamases (IMP-1 and VIM-2) and two Class D β-lactamases OXA-10 and OXA-45).
OXA-45 was a gift from Dr. J. Spencer, University of Bristol, and had been prepared and purified as described by Toleman, M. A. et al., Antimicrob. Agents Chemother. 2003, 47, 2859-2863.
(§2) Two methods were used for measurement of β-lactamase activity, based on the use of the substrate nitrocefin. The first was carried out in a cuvette (final volume 1 ml, 25° C.) with the aid of a Cary 5 spectrophotometer, and second was with the use of a Molecular Devices Spectramax 190 96 well plate reader (final volume 100 μl, 30° C.).
(§3) All assays were performed in the appropriate buffer for the enzyme: (i) IMP-1, VIM-2: 50 mM Hepes pH 7.3, 1 μg/ml BSA, 1 μM ZnSO4; (ii) OXA-45: 100 mM Na Phosphate/25 mM NaCO3 pH 7.0, 1 μg/ml BSA; and (iii) OXA-10: 100 mM Na Phosphate/25 mM NaCO3 pH 7.0. Enzyme concentrations were chosen so that a reasonable rate of reaction was observed. […] The enzyme was allowed to react with the inhibitor for a predetermined time followed by addition of substrate to initiate the reaction, which was monitored for an increase in absorbance at 482 nm. IC50 values were determined by plotting percent loss of initial activity vs log inhibitor concentration. […]

OXA-10 = target: T1, OXA-10 (Pseudomonas aeruginosa, UniProt P14489); assay type: biochemical
T1 construct: made in house; host or cells: E. coli (pEt24a(+) plasmid from Dr. S. Mobashery)
Protocol: as §1
OXA-10 was overexpressed in E. coli using the pEt24a(+) plasmid, encoding OXA-10, which was provided by Dr. S. Mobashery, University of Notre Dame, and was purified as described by Golemi et al., J. Am. Chem. Soc. 2000, 122, 6132-6133.
as §2, §3

| Compound | inhibition of OXA-45 (in words) (OXA-45) | inhibition of OXA-10 (in words) (OXA-10) |
| --- | --- | --- |
| O=C(N/N=C/c1cccc(Oc2ccccc2)c1)c1cc2ccccc2cc1O [Compound 7, 3-Hydroxy-N-(3-phenoxybenzylidene)-2-naphthohydrazide] | good inhibitors | – |
| O=C(N/N=C/c1c2ccccc2cc2ccccc12)c1cc2ccccc2cc1O [Compound 6, N′-(Anthracen-9-ylmethylene)-3-hydroxy-2-naphthohydrazide] | – | good inhibitors |
| CC(C)(C)c1ccc(C(=O)N/N=C/c2cccc(Oc3ccccc3)c2)cc1 [Compound 8, 4-t-Butyl-N′-(3-phenoxybenzylidene)benzohydrazide] | good inhibitors | – |
